# Reference: paper PMC8447601
# These are yes or no findings as the source states them, for the method shown. Binding seen in cells or lysates may run through a third protein. Binding can be weak; no strength is given. Tags and fused reporters may be left off the sequences shown.
# Experiments:
# [1] = target: T1, GFP‐SnRK1α2 (Arabidopsis thaliana) (UniProt P92958); assay: co-IP; α-GFP microbeads on extracts of 10-day-old Arabidopsis seedlings expressing the GFP fusion; no-salt lysis buffer (50 mM Tris pH 8.0, 0.1% Nonidet P-40), 1 h at 4°C; native TSN detected with α-TSN; seedlings NS (23°C), HS (39°C for 60 min) or NaCl for 60 min
# T1 sequence: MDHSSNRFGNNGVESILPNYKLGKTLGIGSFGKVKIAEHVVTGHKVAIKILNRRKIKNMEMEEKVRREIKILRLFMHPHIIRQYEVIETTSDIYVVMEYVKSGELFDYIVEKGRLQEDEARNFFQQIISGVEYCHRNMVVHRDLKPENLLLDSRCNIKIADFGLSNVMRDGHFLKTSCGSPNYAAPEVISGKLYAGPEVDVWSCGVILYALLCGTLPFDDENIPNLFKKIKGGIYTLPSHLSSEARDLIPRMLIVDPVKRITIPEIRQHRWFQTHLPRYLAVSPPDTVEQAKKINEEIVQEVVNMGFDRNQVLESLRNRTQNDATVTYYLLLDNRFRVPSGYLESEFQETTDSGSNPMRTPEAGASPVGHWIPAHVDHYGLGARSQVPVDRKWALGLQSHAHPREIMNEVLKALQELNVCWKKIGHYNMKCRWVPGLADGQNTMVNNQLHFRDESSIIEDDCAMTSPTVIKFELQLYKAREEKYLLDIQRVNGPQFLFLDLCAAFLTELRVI
# [2] = target: T2, GFP‐SnRK1α1 (Arabidopsis thaliana) (UniProt Q38997); assay: as above
# T2 sequence: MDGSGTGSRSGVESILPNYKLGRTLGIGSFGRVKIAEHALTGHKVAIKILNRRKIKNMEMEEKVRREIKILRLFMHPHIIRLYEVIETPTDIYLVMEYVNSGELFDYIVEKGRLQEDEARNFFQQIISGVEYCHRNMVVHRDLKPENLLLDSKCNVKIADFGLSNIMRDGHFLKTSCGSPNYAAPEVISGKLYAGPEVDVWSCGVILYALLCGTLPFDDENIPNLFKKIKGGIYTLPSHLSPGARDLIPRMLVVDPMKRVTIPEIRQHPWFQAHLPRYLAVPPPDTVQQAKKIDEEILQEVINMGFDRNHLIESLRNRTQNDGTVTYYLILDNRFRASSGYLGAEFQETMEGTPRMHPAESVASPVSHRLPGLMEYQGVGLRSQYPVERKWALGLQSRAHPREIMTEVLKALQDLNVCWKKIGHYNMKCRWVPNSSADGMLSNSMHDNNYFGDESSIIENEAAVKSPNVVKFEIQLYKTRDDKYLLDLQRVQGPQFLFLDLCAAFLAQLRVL
substance,measurement,setting,value
"native TSN (endogenous Tudor staphylococcal nuclease, 107 kD)",binding,[1],binds
same,binding,[2],binds
